# Measurements taken from US4235962A, “Combination kit for transaminase assay of a body fluid” (The Dow Chemical Company, priority 1978, dated 1980).
# Amino acid sequences for entries named in this document (tags omitted). Residues count along the entry.
# UniProt P17174, 2-413 limits assumed: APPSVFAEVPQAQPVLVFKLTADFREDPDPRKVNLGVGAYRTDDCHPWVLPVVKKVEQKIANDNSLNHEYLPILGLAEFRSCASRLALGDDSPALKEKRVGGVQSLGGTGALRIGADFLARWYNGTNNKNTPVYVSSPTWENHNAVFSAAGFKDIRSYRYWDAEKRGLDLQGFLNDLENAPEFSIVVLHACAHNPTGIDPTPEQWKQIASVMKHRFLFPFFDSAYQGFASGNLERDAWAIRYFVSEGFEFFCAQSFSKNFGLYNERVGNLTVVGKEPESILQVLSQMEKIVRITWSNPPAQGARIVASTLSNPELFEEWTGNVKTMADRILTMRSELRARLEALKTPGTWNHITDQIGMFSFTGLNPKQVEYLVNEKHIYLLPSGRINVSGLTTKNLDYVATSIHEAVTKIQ
# At least one structure is not confirmed: it was looked up by name or label, or the drawing left a doubt.
# Target: AST (aspartate 2-oxoglutarate aminotransferase) (Homo sapiens, UniProt P17174)
# Assay: Kinetic studies on the specificity of the AST/ALT system: AST
compound,measurement,setting,value
"N[C@@H](CC(=O)O)C(=O)O [aspartate, L-aspartate]",Theoretical turnover of AST,"0.0016 mM aspartate, 0.2 mM 2-oxoglutarate (apparent Km 0.91 mM)",0.1 % Vmax
same,Theoretical turnover of AST (% V),"0.0016 mM serum contributing aspartate, 15 mM 2-oxoglutarate, 800 mM alanine",0.016%
